Conditions: added into cultured cells or applied to animals

CC[C@H](C)[C@H](NC(=O)[C@H](CC(C)C)NC(=O)[C@H](CCC(=O)O)NC(=O)[C@@H](NC(=O)[C@H](CO)NC(=O)[C@H](Cc1ccc(O)cc1)NC(=O)[C@@H]1CCCN1C(=O)[C@H](CCSC)NC(=O)[C@H](CCCNC(=N)N)NC(=O)[C@H](CC(=O)O)NC(=O)[C@H](CCCCN)NC(=O)[C@H](CC(=O)O)NC(=O)[C@H](CC(=O)O)NC(=O)[C@H](CC(=O)O)NC(=O)[C@H](CC(=O)O)NC(=O)[C@H](Cc1ccc(O)cc1)NC(=O)[C@H](CC(C)C)NC(=O)[C@H](CC(=O)O)NC(=O)[C@@H](N)CCCNC(=N)N)[C@@H](C)O)C(=O)N[C@@H](Cc1ccccc1)C(=O)N[C@@H](Cc1ccc(O)cc1)C(=O)N[C@H](C(=O)N[C@@H](CCC(=O)O)C(=O)N[C@@H](CCSC)C(=O)N[C@@H](CC(=O)O)C(=O)N1CCC[C@H]1C(=O)O)[C@@H](C)CC [PTD-P15, arginine-asparaginic acid-leucine-tyrosine-asparaginic acid-asparaginic acid-asparaginic acid-asparaginic acid-lysine-asparaginic acid-arginine-methionine-proline-tyrosine-serine-threonine-glutamic acid-leucine-isoleucine-phenylalanine-tyrosine-isoleucine-glutamic acid-methionine-asparaginic acid-proline]
toxicity: no obvious toxicity

— patent US20140179619A1, “POLYPEPTIDE, NUCLEOTIDE SEQUENCE THEREOF, AND METHOD FOR USING THE SAME FOR PREVENTING DNA SYNTHESIS AND INHIBITING CELL PROLIFERATION” (Wuhan Yicheng Biotech, Inc., priority 2011, published 2014)
